From paper PMC5647543, “The Two-State Prehensile Tail of the Antibacterial Toxin Colicin N” (Biophysical Journal, 2017)
Results are given in words; binding and its absence hold for the method and conditions named.

Target: ColN_(1–90) (ColN-T), isolated translocation domain of colicin N (Escherichia coli) (UniProt P08083)
Experiment: AUC; sedimentation velocity, 48,000 RPM, 4°C, 20 mM Tris, 150 mM NaCl, pH 7.5; 0.3-1.5 mg/mL; c(s) and c(M) analysis in SEDFIT; both purified

B1: ColN_(1–90) (ColN-T), isolated translocation domain of colicin N (domain or fragment)
chain: MGSNGADNAHNNAFGGGKNPGIGNTSGAGSNGSASSNRGNSNGWSWSNKPHKNDGFHSDGSYHITFHGDNNSKPKPGGNSGNRGNNGDGA
notes: colicin N (ColN), residues 1-90, the intrinsically disordered translocation (T-) domain; the whole toxin has 387 residues; 98-residue construct: residues 1-90 followed directly by Ser2His6; Used unlabelled in the NMR mixing experiment; also called T-domain; ColN-T(1-90)-SSHHHHHH; source: purified as previously described (20, 26), dialysed into 50 mM sodium phosphate, pH 7.6, 300 mM NaCl; not …
**Q.** B1 was tested. Which binding did it give?
**A.** no binding (tested: 0.3-1.5 mg/mL)
